Source: the supplement of paper PMC12819154, “High-throughput peptide-centric local stability assay extends protein–ligand identification to membrane proteins, tissues and bacteria” (Nature Structural & Molecular Biology, 2025)
The list shows a part of the results. Small differences around the control level are noise.

Each target was assayed with CN[C@@H]1C[C@H]2O[C@@](C)([C@@H]1OC)n1c3ccccc3c3c4c(c5c6ccccc6n2c5c31)C(=O)NC4 [staurosporine] (assay: log2 fold change of tryptic peptide abundance, ligand vs vehicle (limited proteolysis) (log2 ratio); higher = more trypsin-susceptible (destabilized)). Conditions: ligand concentration: 20 uM; sample: mouse liver crude lysate; replicate design: treated separately.

Target | log2 fold change
UniProt P01899 (peptide sequence: YFETAVSRPGLEEPR, peptide start residue: 31) | -0.226
UniProt P04918 (peptide sequence: NSDKYFHAR, peptide start residue: 49) | 0.144
UniProt P06797 (peptide sequence: DRDNHCGLATAASYPVVN, peptide start residue: 317) | -0.16
UniProt P00184 (peptide sequence: NPHLSLTR, peptide start residue: 59) | -0.0657
UniProt O89090 (peptide sequence: KFACPECPKR, peptide start residue: 686) | 0.383
UniProt P09021 (peptide sequence: SYAAGASAAPAEPR, peptide start residue: 72) | 0.491
UniProt P09602 (peptide sequence: GKADAGKDANNPAENGDAK, peptide start residue: 58) | -0.221
UniProt O89053 (peptide sequence: HVFGQPAK, peptide start residue: 13) | -0.636
UniProt P15314 (peptide sequence: HGWDINKDACLFR, peptide start residue: 44) | 0.676
UniProt P02301 (peptide sequence: EIAQDFKTDLR, peptide start residue: 74) | 0.126
UniProt P08074 (peptide sequence: ALVTGAGKGIGR, peptide start residue: 10) | 0.543
UniProt P14206 (peptide sequence: SDGIYIINLKR, peptide start residue: 43) | 0.128
UniProt P13011 (peptide sequence: RGFFFSHVGWLLVRK, peptide start residue: 171) | 0.84
UniProt P15208 (peptide sequence: NCMVAHDFTVK, peptide start residue: 1154) | -1.18
UniProt O89051 (peptide sequence: YQTIEENIK, peptide start residue: 112) | -0.0635
UniProt P11930 (peptide sequence: EAFEEAGVLLLRPR, peptide start residue: 112) | -0.504
UniProt P11499 (peptide sequence: YESLTDPSKLDSGKELK, peptide start residue: 56) | -0.561
UniProt P04230 (peptide sequence: TGIVSTGLVR, peptide start residue: 135) | -0.479
UniProt P13597 (peptide sequence: AQEEAIKLK, peptide start residue: 523) | -0.238
UniProt P0DW87 (peptide sequence: LKEEQATCPNCR, peptide start residue: 140) | -0.113

Target | log2 fold change
UniProt P13439 (peptide sequence: IDADMVGR, peptide start residue: 189) | 0.147
UniProt P11588 (peptide sequence: FAQLCEK, peptide start residue: 152) | -0.0595
UniProt P12790 (peptide sequence: ICLGESIAR, peptide start residue: 444) | 0.0692
UniProt P08249 (peptide sequence: MIAEAIPELK, peptide start residue: 315) | -0.192
UniProt P11276 (peptide sequence: GVTYNIIVEALQNQRR, peptide start residue: 2255) | 0.227
UniProt P07758 (peptide sequence: KVINDFVEKGTQGK, peptide start residue: 173) | 0.343
UniProt O89116 (peptide sequence: SYKQEMGKLETDFK, peptide start residue: 76) | 0.373
UniProt P00920 (peptide sequence: DFPIANGDR, peptide start residue: 19) | -0.144
UniProt P13705 (peptide sequence: SSASSTEPAEKVTEGDSR, peptide start residue: 36) | -0.489
UniProt P10404 (peptide sequence: STGTDPVTR, peptide start residue: 210) | -0.235
UniProt P10922 (peptide sequence: KSTDHPKYSDMIVAAIQAEK, peptide start residue: 21) | -0.333
UniProt P08046 (peptide sequence: AFATQSGSQDLK, peptide start residue: 292) | 0.0825
UniProt P10853 (peptide sequence: KESYSVYVYK, peptide start residue: 35) | 0.242
UniProt P14824 (peptide sequence: GFGSDKESILELITSR, peptide start residue: 35) | -0.509
UniProt P11103 (peptide sequence: RKGDEVDGTDEVAK, peptide start residue: 208) | 0.172
UniProt P14869 (peptide sequence: GHLENNPALEKLLPHIR, peptide start residue: 67) | 0.28
UniProt P08730 (peptide sequence: ITMQNLNDR, peptide start residue: 85) | 0.0644
UniProt P15392 (peptide sequence: FFSNPKDFNPK, peptide start residue: 404) | 0.191
UniProt P11983 (peptide sequence: YPVNSVNILKAHGR, peptide start residue: 190) | 0.892

A different layout for some results above:
Target,log2 fold change
"UniProt P10853 (peptide sequence: KESYSVYVYK, peptide start residue: 35)",0.242
"UniProt P14824 (peptide sequence: GFGSDKESILELITSR, peptide start residue: 35)",-0.509
